Test results as given in publication PMC10908861.
No constants are given. Whether binding was seen depends on the method and setting. Binding seen in cells or lysates may run through a third protein. Some binding calls cover weakened binding; strength is not graded here. Sequences can lack the tags named with a protein.

By UniProt entry, the sequences of proteins in these tests, tags left out.
UniProt P21796: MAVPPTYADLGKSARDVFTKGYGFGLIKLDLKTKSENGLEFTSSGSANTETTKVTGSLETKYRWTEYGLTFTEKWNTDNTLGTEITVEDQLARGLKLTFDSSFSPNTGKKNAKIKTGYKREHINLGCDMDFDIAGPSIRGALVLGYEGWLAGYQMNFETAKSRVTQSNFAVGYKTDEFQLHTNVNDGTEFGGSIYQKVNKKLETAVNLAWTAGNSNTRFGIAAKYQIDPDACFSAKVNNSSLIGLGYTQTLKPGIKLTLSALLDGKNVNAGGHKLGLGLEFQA

Target: T1, uSLC35A4 protein with C-terminal Flag tag (human) (UniProt L0R6Q1)
T1 sequence: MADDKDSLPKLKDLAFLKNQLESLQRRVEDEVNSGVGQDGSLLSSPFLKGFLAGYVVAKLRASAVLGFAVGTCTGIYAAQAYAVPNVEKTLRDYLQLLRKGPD
Test: co-IP; anti-Flag immunoprecipitate of cells expressing the Flag-tagged ORF peptide, western blot for endogenous proteins

- binding: binds
Substance: VDAC1 (from UniProt P21796 1-283)
